# Measurements taken from PubChem BioAssay AID493014 (National Center for Advancing Translational Sciences (NCATS), 2011).
# The whole screen tested about 340,000 compounds, of which about 170 (0.05%) were called active. The shares of active, inactive and inconclusive entries below differ from those in the screen. Calls follow the shape of the dose curve; as a rule, active = well fitted inhibition curve with a large enough effect in the signal ratio, with a control signal flat (not every such curve was filed as active); inconclusive = small, poorly fitted or top-dose-only effect, or effect the other way, or a change in a side signal; inactive = flat fitted curve, though single readings scatter; the % refers to the signal ratio. Potencies of inconclusive entries are doubtful fits and often do not repeat.
# Test: qHTS Assay to Find Inhibitors of Chronic Active B-Cell Receptor Signaling;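 as to activity change, negative = inhibition: plate controls were basal doxycycline-induced cells for no effect and cells given 10 µM MG132 for full effect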
# Conditions: ABC-DLBCL IkBa-CBG/CBR reporter, luminescence ratio (green luciferase fused to IkBa over red control in TMD8 lymphoma cells), 4 h; activity change, negative = inhibition: at 46.1 µM (top of the series) unless noted
# Summary of the method: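 TMD8 human ABC-DLBCL cells with doxycycline-inducible IκBα–green luciferase fusion and unfused red luciferase, in 0.5% FBS medium; compounds up to 46 uM, 4 h at 37C. Green/red luminescence ratio, filter-overlap corrected, fitted to concentration-response curves.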
# Potency is read from the fitted curve at half-maximal effect.
SMILES,Potency,"activity change, negative = inhibition"
COc1cccc(-c2nc(-c3ccccc3)c(-c3ccccc3)[nH]2)c1OCC(=O)O,"inconclusive: 15.8 µM [falling, single point]",–
Cc1ccc(Nc2c([N+](=O)[O-])c(=O)n(C)c3ccccc23)cc1C,–,inconclusive: -2.88%
O=C(CCc1nnc(CCCCc2ccccc2)o1)NCCN1CCOC1=O,–,inconclusive: 9.72%
CC(C)C(=O)Nc1cccc(NC(=S)NC(=O)c2cccs2)c1,"inconclusive: 11.2 µM [falling, partial curve]",–
CC(C)CNC(=O)COC(=O)c1c2c(nc3ccccc13)/C(=C/c1cccs1)CC2,–,inactive: 23.5%
COc1ccc(C2CN=NC23CCc2ccccc2C3=O)cc1 (stereo not given),–,inactive: -7.88%
CC(C)CN(C(=O)C1CCCO1)c1c(N)n(CC(C)C)c(=O)[nH]c1=O (stereo not given),–,inactive: 0.0089%
COCCCN(C(=O)Nc1cccc(Cl)c1)C(C)c1ccccn1 (stereo not given),"inconclusive: 1.84 µM [rising, full curve, poor fit]",–
O=C(NC1CCN(C(=O)Nc2cccc(Cl)c2)CC1)c1ccccc1,–,inconclusive: -2.68%
O=C1CC(Nc2ccc(N3CCOCC3)cc2)C(=O)N1c1ccccc1F (stereo not given),–,inconclusive: 0.975%
Cc1c(C(=O)NCc2ccccc2CN2CCCC2)oc2ccc(F)cc12,–,inactive: 0.213%
COc1ccc(Cl)cc1NC(=S)NCc1ccc(S(N)(=O)=O)cc1,–,inconclusive: -11%
O=C(COC(=O)c1ccc(Cl)cc1[N+](=O)[O-])NNC(=O)c1cccs1,–,inactive: 2.05%
Cn1c(SCc2nc3ccccc3[nH]2)nnc1-c1cnccn1,–,inactive: 1.74%
CCC(=O)c1cc(F)ccc1OCC(=O)Nc1ccc2c(c1)OCCO2,–,inconclusive: 6.42%
COC(=O)Cn1c(=O)c2c(nc3n2CC(C)CN3Cc2ccccc2)n(C)c1=O (stereo not given),"inconclusive: 5.62 µM [rising, full curve, poor fit]",–
COc1ccc(CCC(=O)NCc2cccc(C(F)(F)F)c2)cc1,–,inactive: 5.01%
COc1cc(CN2CCN(C(C)C)C(CCO)C2)ccc1OCc1ccccc1 (stereo not given),"inconclusive: 4.47 µM [falling, full curve, poor fit]",–
COc1ccc(N2CCN(C(=O)CCC(=O)N3Cc4ccccc4Oc4ncccc43)CC2)cc1,–,inactive: 0.546%
COc1ccc(O)c(C(=O)c2coc(=N)c(C(=O)Nc3ccc(SC(F)F)cc3)c2)c1,–,inactive: -1.85%
Cn1c(=O)n(C)c2cc(N3CCCCC3)c(NC(=O)c3cccc(Cl)c3)cc21,–,inconclusive: 3.93%
Cc1cccc(-n2cc[nH]c2=S)c1C,–,inactive: -8.63%
Cc1ccc(C2=NN(C(=O)c3ccco3)C(O)(C(F)(F)F)C2)cc1 (stereo not given),–,inconclusive: 0.647%
CNc1nc(NN)nc(Nc2ccccc2)n1,–,inconclusive: -18.6%
COC(=O)[C@@H]1CC[C@H](C)[C@@H](c2ccc(C)cc2)N1C(=O)c1ccc(/C=N/O[C@@H](C)c2cn([C@H](CO)Cc3ccccc3)nn2)cc1,–,inconclusive: -5.02%
C=CCc1ccc(OCC(O)CN2CCN(Cc3ccc(Cl)cc3)CC2)c(OC)c1 (stereo not given),"inconclusive: 20.6 µM [falling, single point]",–
CCOc1cc(C(=O)OCC(=O)NC(C)c2ccccc2)ccc1OCC(=O)N1CCOCC1 (stereo not given),–,inconclusive: -5.2%

# 4 neighbouring entries out of the list so far, quoted:
SMILES,Potency,"activity change, negative = inhibition"
CC(C)C(=O)Nc1cccc(NC(=S)NC(=O)c2cccs2)c1,"inconclusive: 11.2 µM [falling, partial curve]",–
CC(C)CNC(=O)COC(=O)c1c2c(nc3ccccc13)/C(=C/c1cccs1)CC2,–,inactive: 23.5%
COc1ccc(C2CN=NC23CCc2ccccc2C3=O)cc1 (stereo not given),–,inactive: -7.88%
CC(C)CN(C(=O)C1CCCO1)c1c(N)n(CC(C)C)c(=O)[nH]c1=O (stereo not given),–,inactive: 0.0089%

# The listing continues.

SMILES,Potency,"activity change, negative = inhibition"
CCOC(=O)N1CCN(CC(=O)Nc2ccc(Oc3ccccc3)cc2)CC1,"inconclusive: 23.1 µM [falling, single point]",–
CCn1c(CNC(=O)c2cc(OC)c(OC)c(OC)c2)cc2cc(C)ccc21,"inconclusive: 12.6 µM [falling, partial curve, poor fit]",–
O=C(CN1C(=O)S/C(=C\c2ccccc2)C1=O)NC1CCS(=O)(=O)C1 (stereo not given),"inconclusive: 22.4 µM [falling, single point]",–
Cc1ccc(-c2onc3ccc(Cl)cc23)cc1,–,inconclusive: 4.71%
O=C(O)CCc1nc(-c2ccc(Cl)cc2)no1,–,inconclusive: -12.2%
O=C(CSc1nccn1Cc1ccccc1)NCc1ccccc1,–,inconclusive: 1.82%
CCOC(=O)C1CCN(C(=O)C2(NC(=O)Nc3ccc(F)cc3F)CCCCC2)CC1,–,inconclusive: 0.047%
Cc1ccc(Cn2ccc(=O)c(OCc3c(Cl)cccc3Cl)c2C)cc1,–,inconclusive: 18.4%
N#Cc1ccc(N2Cc3ccccc3/C2=N/C(=O)Nc2ccc(Cl)cc2)cc1,–,inconclusive: 5.48%
COc1cc2cc(CCCOC(=O)c3ccc(F)cc3)oc(=O)c2cc1OC,–,inactive: -6.09%
Cc1cccc(C(=O)Nc2nnc(COc3ccccc3)s2)c1,–,inconclusive: -18.6%
O=C(/C=C/c1ccccc1)Oc1ccccc1C(=S)N1CCOCC1,"inconclusive: 35.5 µM [falling, single point]",–
O=c1c2ccccc2[nH]c(=S)n1CCN1CCC(=C(c2ccc(F)cc2)c2ccc(F)cc2)CC1,–,inconclusive: 5.85%
CCc1nc(-c2ccc(C)c(S(=O)(=O)N3CCN(c4ccc(C(C)=O)cc4)CC3)c2)no1,"inconclusive: 1.58 µM [falling, full curve, poor fit]",–
COc1ccc(OCC(=O)NNC(=S)NC(=O)C2CCCCC2)cc1,–,inactive: 0.0937%
COc1ccc(-c2[nH]ncc2CN2CCCC(C(=O)c3ccc(OC)cc3OC)C2)cc1 (stereo not given),"inconclusive: 5.01 µM [falling, single point]",–
Nc1c(S(=O)(=O)c2cccs2)c2nc3ccccc3nc2n1Cc1ccc2c(c1)OCO2,–,inconclusive: 4.27%
CC(=O)Nc1ccc(-c2csc(NNC(=O)c3ccc(C)cc3)n2)cc1,–,inactive: -3.33%
COC(=O)c1ccc(COC(=O)c2ccccc2OC)cc1,"inconclusive: 29.1 µM [falling, partial curve, poor fit]",–
CC(=O)NN1C(=O)c2ccccc2NC1c1ccccc1O (stereo not given),–,inactive: 2.17%
Cc1cc(C(=O)Nc2ccc(Cl)cc2)n(-c2ccccc2)n1,"inconclusive: 17.8 µM [falling, single point]",–
CCOc1nc(Nc2ccc(OC)c(Cl)c2)nc(N2CCN(c3ccc(OC)cc3)CC2)n1,–,inactive: 0.958%
OCCNCCNCc1ccc(-c2ccccc2)cc1,"inconclusive: 35.5 µM [falling, single point]",–
O=c1[nH]c2ccccc2n1CCCN1CCCCC1,"inconclusive: 3.98 µM [falling, single point]",–
Cc1ccnc(SCC(=O)c2ccc([N+](=O)[O-])cc2)n1,–,inconclusive: -10.6%
COc1ccc(C(=O)/C=C/N2CCCCC2)cc1OC,–,inconclusive: -13.2%
Cc1ccc(C)c(NS(=O)(=O)c2ccc(NC(=O)CSc3ccc(Cl)cc3)cc2)c1,–,inconclusive: -0.81%

SMILES,Potency,"activity change, negative = inhibition"
Cc1ccccc1C(=O)N1CCN(c2ccc(NC(=O)c3ccc([N+](=O)[O-])o3)cc2)CC1,"inconclusive: 2.82 µM [falling, partial curve, poor fit]",–
O=C1c2ccccc2C(=O)N1CNc1ccccc1,–,inconclusive: -7.64%
COc1cc(C(=O)NCCSc2ccc(Cl)cc2)cc(OC)c1OC,–,inconclusive: -0.222%
Cc1ccsc1/C=N\Nc1cn[nH]c(=O)c1Cl,"inconclusive: 11.2 µM [falling, partial curve]",–
CCOC(=O)c1c(C)[nH]c(C(=O)N/N=C\c2ccccc2O)c1C,–,inactive: 3.76%
COc1cc(C)ccc1OCCOc1c(C)cc(Cl)cc1Cl,–,inconclusive: 8.74%
CC(=O)c1ccc(NC(=O)C(C)Sc2nnc(-c3ccncc3)n2C2CC2)cc1 (stereo not given),–,inactive: 0.206%
COc1cc(CC(=O)NC2CCCc3ccccc32)cc(OC)c1OC (stereo not given),–,inactive: 15%
FC(F)(F)c1cccc(-c2ccc(/C=N/Nc3nncc(-c4ccccc4)n3)o2)c1,–,inactive: -0.708%
CCCNC(=O)c1ccc2c(c1)nc(C)n2-c1cccc(Cl)c1,–,inconclusive: 0.219%
CN(C)S(=O)(=O)c1ccc(N2CCCC2)c(C(=O)NNC(=O)COc2ccccc2F)c1,–,inconclusive: 5.95%
Cc1ccc(O)c(NC(=S)NC(=O)c2ccccc2Cl)c1,"inconclusive: 35.5 µM [rising, single point]",–
Cc1ccc(-c2nc3ncccn3c2Nc2ccc3c(c2)OCO3)o1,–,inactive: 9.44%
CCc1ccc(OC(=O)/C=C/c2ccco2)cc1,–,inconclusive: 13.2%
CN1CCN(c2ccc(CNC(=O)c3ccc4c(c3)OCCO4)cc2)CC1,"inconclusive: 15.8 µM [falling, partial curve, poor fit]",–
CN(C)c1c([N+](=O)[O-])cc2[nH]c(=O)[nH]c2c1[N+](=O)[O-],–,inconclusive: 4.54%
O=C(COC(=O)[C@@H]1CCCN1C(=O)c1cccs1)Nc1cccc(Cl)c1,–,inactive: 0%
CSc1sc(C(=O)NNC(=O)c2ccc(Cl)cc2)c2c1C=CCC2,"inconclusive: 15.8 µM [falling, partial curve]",–
O=C(OCn1ncc(Cl)c(Cl)c1=O)c1cccc(C(F)(F)F)c1,–,inconclusive: -25.4%
COc1ccc(C(C)(C)C)cc1NC(=O)CSc1ncn[nH]1,–,inconclusive: 4.47%
COc1ccc(CC(=O)OCC(=O)NCc2ccc(C)cc2)cc1OC,–,inactive: -0.402%
COc1ccc(C(C(=O)NC(C)(C)C)N(CCc2ccc(OC)c(OC)c2)C(=O)CCC(=O)Nc2cc(C)on2)cc1 (stereo not given),–,inactive: 6%
O=C(COC(=O)C1CCN(S(=O)(=O)c2cccs2)CC1)c1ccccc1,–,inconclusive: 8.19%
CCOCCCNC(=O)c1ccc2nc(-c3ccc(OC)c(OC)c3)c(-c3ccc(OC)c(OC)c3)nc2c1,–,inconclusive: -11%
CC(=O)NC[C@H]1CN(c2ccc(N3CCOCC3)c(F)c2)C(=O)O1,–,inconclusive: -28%
O=C(COC(=O)c1ccc(F)c([N+](=O)[O-])c1)NC(=O)NCc1ccccc1,–,inconclusive: 6.28%
